This note sets out measurements from PubChem BioAssay AID2685 (National Center for Advancing Translational Sciences (NCATS), 2010).

The other results are listed elsewhere or left out. The main result of the screen is listed elsewhere. These columns were measured beside it and carry no call. Compounds called inactive in the main read-out are mostly missing here. Potencies come from curve fits of mixed quality, noted in brackets.

A short description of this assay: qHTS Assay for Lipid Storage Modulators in Drosophila S3 Cells.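 For cell number change: cells counted by Cell Tracker Red CMTPX staining in the red channel.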 The following applies: BODIPY lipid droplet fluorescence, 18-24 h; for cell number change: measured here: cell count max response, cells fed with added oleic acid. Put shortly: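 Drosophila S3 cells got compounds at several concentrations plus oleic acid (400 uM solution). Laser-scanning cytometry with 488 nm excitation read lipid droplets at 500-530 nm and cells at 575-640 nm. Percent activity was relative to 20 uM Triacsin C.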
(qHTS replaces the single test concentration by a dilution series.)

Where [1] appears, read: measured here: cell number channel AC50, cells fed with added oleic acid.
The mark [2] stands for this setting: measured here: lipid fluorescence (Fed channel) AC50, cells fed with added oleic acid.

On to `O=c1c(/C=C(\O)c2ccccc2)nc2ccccc2n1-c1ccccc1`, for which the cell number change came out at 65.7%. Besides, the AC50 – broadly, the midpoint of the concentration-response curve, whichever way the signal moves – under setting [1] was 2.91 µM [rising, full curve]. The AC50 under setting [2] is 2.31 µM [rising, partial curve].
As for `CCn1c(SCC(=O)N(C)CC(=O)Nc2ccc(OC)cc2)nnc1-c1ccco1`, the cell number change was 11.5%.
For `COc1ccc(OC)c(C2CC(=O)Nc3cc(OC)c(OC)c(OC)c32)c1` (stereo not drawn), the cell number change was 58.6%. In addition, under setting [1], the concentration at half-maximal activity (AC50) is 2.06 µM [rising, partial curve]. Under setting [2], the AC50 was 1.46 µM [rising, full curve].
As to `O=C(NCCCNC(=O)C(F)(F)C(F)F)C(F)(F)C(F)F`, the cell number change is -38.6%. In addition, the half-maximal activity concentration (AC50) under setting [1] is 29.1 µM [falling, single point]. The AC50 under setting [2] is 29.1 µM [falling, single point].
Turning to `Cc1cc(Cl)cc(Cl)c1OCCOc1cccc2cccnc12`, the cell number change is 10.8%. Under setting [1], the AC50 was 1.3 µM [rising, full curve]. Under setting [2], the AC50 was 20.6 µM [rising, partial curve].
Turning to `OCCOCCNc1ncnc2c1c(-c1ccccc1)cn2-c1ccccc1`, the cell number change is -10.2%. Also, the AC50 under setting [2] was 29.1 µM [falling, single point].
Consider `Cc1ccccc1C1c2[nH]c3ccccc3c2CCN1Cc1cccn1-c1ncccn1` (stereo not drawn), for which the cell number change stood at 22.3%. In addition, the AC50 under setting [1] is 1.16 µM [rising, full curve, poor fit].
For `C/C(=N\NC(=O)Cc1cccn1C)c1cccc2ccccc12`, the cell number change is -42.4%. Further, the AC50 under setting [1] is 8.2 µM [falling, partial curve]. Also, the AC50 under setting [2] was 16.4 µM [rising, partial curve].
Take `O=C(NCc1ccco1)c1cccn2c(=O)c3cc4ccccc4cc3nc12`: the cell number change is 56.5%. The AC50 under setting [1] was 0.517 µM [rising, full curve, poor fit]. The AC50 under setting [2] is 2.06 µM [rising, partial curve].
For the compound `CC1CCN(Cc2c(C(=O)N/N=C/c3cc(Cl)ccc3O)nnn2-c2nonc2N)CC1`, the cell number change was 23.9%. Further, under setting [2], the concentration at half-maximal activity (AC50) is 29.1 µM [rising, single point].
`COc1ccc(NC(=O)CSc2nnc(-c3ccccc3C)n2C)cc1`: the cell number change came to 24.4%. The AC50 under setting [2] is 0.651 µM [falling, full curve].
In the case of `COc1ccccc1NC(=O)N1CCCC1C(=O)NC12CC3CC(CC(C3)C1)C2` (stereo not drawn), the cell number change is -71.5%. In addition, under setting [1], the AC50 is 8.2 µM [falling, partial curve]. Moreover, the concentration at half-maximal activity (AC50) under setting [2] is 20.6 µM [falling, partial curve].
On to `N#Cc1ccc(NC(=O)c2cc(-c3cccs3)on2)cc1`, for which the cell number change was -7.87%. In addition, the AC50 under setting [1] is 1.3 µM [falling, single point]. Besides, under setting [2], the AC50 was 1.16 µM [falling, single point].
Take `Oc1[nH]c2ccc(Br)cc2c1N=Nc1ccc(F)cc1`: the cell number change was -18.8%.
In the case of `O=C(O)c1ccc(-n2c(/C=C/c3cccc([N+](=O)[O-])c3)nc3ccccc3c2=O)cc1`, the cell number change came to 23.4%.
On to `COc1cccc(C(=O)NNC(=O)C(=O)Nc2cccc(Cl)c2C)c1`, for which the cell number change is -19%. Under setting [2], the AC50 was 29.1 µM [rising, single point].
For the compound `O=C(O)c1c(C(=O)O)c(-c2ccc(Br)cc2)n2c1CSC2`, the cell number change was -33.6%. The concentration at half-maximal activity (AC50) under setting [1] is 20.6 µM [falling, partial curve]. The half-maximal activity concentration (AC50) under setting [2] is 14.6 µM [falling, partial curve].
On to `O=c1c2[nH]c3ccccc3c2ncn1CCN1CCCCC1`, for which the cell number change was found to be 1.53%. Under setting [2], the AC50 was 3.26 µM [falling, single point].
On to `COc1ccc(CCC(=O)OCC(=O)Nc2ccc(C)c(S(=O)(=O)N(C)C)c2)cc1`, for which the cell number change was 2.97%. In addition, the concentration at half-maximal activity (AC50) under setting [1] is 0.517 µM [rising, partial curve, poor fit].
As for `CC(/C=N/NC(=O)CSc1ccccn1)=C\c1ccc(C(C)C)cc1`, the cell number change was 9.92%. Also, the concentration at half-maximal activity (AC50) under setting [2] was 16.4 µM [rising, partial curve].
Turning to `COc1ccc(CC(=O)Nc2nc3n(n2)C(c2ccccc2)CC(=O)N3)cc1OC` (stereo not drawn), the cell number change is -12.9%. In addition, the concentration at half-maximal activity (AC50) under setting [2] is 25.9 µM [falling, single point].
Take `Clc1ccccc1OCc1nc(-c2ccc(Br)o2)no1`: the AC50 under setting [2] was 0.651 µM [rising, full curve, poor fit].
As to `O=C(C1CCCN(S(=O)(=O)c2cccnc2)C1)N1CCN(c2ccccn2)CC1` (stereo not drawn), the cell number change was -1.37%. Besides, the AC50 under setting [2] is 1.46 µM [rising, full curve].
Take `COC(=O)c1ccccc1S(=O)(=O)NNC(=O)C1COc2ccccc2O1` (stereo not drawn): the cell number change was determined as 4.11%. Besides, the AC50 under setting [1] is 5.8 µM [falling, single point].
For `CCCCC(=O)OCc1c(-c2cccc(OC)c2)ncc2ccccc12`, the cell number change is -9.27%. Moreover, the concentration at half-maximal activity (AC50) under setting [2] was 0.116 µM [rising, full curve, poor fit].
For `CS(=O)(=O)N(CCc1ccccc1)CC(=O)NCc1ccc2c(c1)OCO2`, the cell number change was found to be 61.8%. Also, the half-maximal activity concentration (AC50) under setting [1] was 10.3 µM [rising, partial curve]. Besides, the AC50 under setting [2] is 23.1 µM [rising, partial curve].
On to `O=C(CN(CCc1ccccc1)S(=O)(=O)c1ccc(Cl)cc1)N/N=C/c1ccc2c(c1)OCO2`, for which the cell number change was -4.36%. The concentration at half-maximal activity (AC50) under setting [2] was 1.3 µM [rising, full curve, poor fit].
In the case of `O=C(NCC1CCCO1)c1c(O)nc2sccn2c1=O` (stereo not drawn), the cell number change was -3.31%. Further, under setting [2], the AC50 was 6.51 µM [rising, single point].
For `COc1cc2c3c(c1OC)C1(C=CC(=NO)C=C1)CC3N(C(C)=O)CC2` (stereo not drawn), the cell number change was -15.1%. Moreover, under setting [1], the AC50 is 0.103 µM [falling, full curve, poor fit].
As for `O=C(CN1CCCCCC1)Nc1cccc([N+](=O)[O-])c1`, the cell number change was -34.5%. Moreover, under setting [1], the concentration at half-maximal activity (AC50) was 2.06 µM [falling, single point].
Take `O=C(NCCN1CCCC1)C(c1ccccc1)c1ccccc1`: the cell number change was -43.8%. Under setting [1], the AC50 is 32.6 µM [falling, partial curve]. The AC50 under setting [2] is 0.13 µM [falling, full curve, poor fit].
On to `COc1cccc(N(CC(=O)NCc2ccccc2)C(=O)CCC(=O)Nc2nccs2)c1`, for which the cell number change is 173%. Besides, the AC50 under setting [1] is 29.1 µM [rising, single point].
As to `COc1ccc(N2CCN(c3oc(-c4ccccc4OC)nc3C#N)CC2)cc1`, the cell number change came out at 30.2%. For the same compound, the half-maximal activity concentration (AC50) under setting [1] is 29.1 µM [rising, single point].
With `O=C(c1ccncc1)N(Cc1ccccc1)Cc1nc2ccccc2c(=O)[nH]1`, the cell number change was determined as 8.47%. In addition, the AC50 under setting [2] was 1.84 µM [falling, partial curve].
As for `COc1ccccc1CNC(=O)CCNC(=O)c1ccco1`, the concentration at half-maximal activity (AC50) was 0.82 µM [rising, single point] under setting [1] and 6.51 µM [rising, single point] under setting [2].
Turning to `C=CC[n+]1c(-c2ccc(OC)c(OC)c2)csc1NNC(=O)Nc1ccccc1`, the cell number change was -8.62%. The concentration at half-maximal activity (AC50) under setting [1] was 4.61 µM [rising, single point]. For the same compound, under setting [2], the half-maximal activity concentration (AC50) was 4.61 µM [rising, partial curve].
Take `O=C(NNC(=O)C(O)c1ccccc1)NC1CCCCC1` (stereo not drawn): the cell number change was -10.3%.
As to `COC(=O)C1CCN(C(=O)COC(=O)C2CCN(S(=O)(=O)c3c(Cl)cccc3Cl)CC2)CC1`, the cell number change is 1.26%. For the same compound, under setting [2], the concentration at half-maximal activity (AC50) is 0.13 µM [falling, full curve, poor fit].
For the compound `COc1ccc(OCCOCCN2CCN(C)CC2)cc1`, the cell number change is 8.4%. Further, the AC50 under setting [2] is 29.1 µM [rising, single point].
With `CCN(CC(=O)Nc1cc(Cl)ccc1C)C(=O)CCS(=O)(=O)c1ccc(Cl)cc1`, the cell number change was found to be 23.7%.
Turning to `Clc1cccc(N=C2NN=C(c3ccc4c(c3)OCCO4)CS2)c1`, the cell number change was -22.7%.
`CCCCNC(=O)Cn1nc(C)c(S(=O)(=O)N2CCOCC2)c1C`: the cell number change turned out to be 21.4%. The half-maximal activity concentration (AC50) under setting [1] is 0.731 µM [falling, single point].
Take `Cc1ccccc1NC(=O)COC(=O)CN1C(=O)NC(C)(C)C1=O`: the cell number change was found to be 35.5%. Besides, under setting [1], the AC50 is 29.1 µM [rising, single point].
`CCN(CC)c1ccc(NC(=O)c2ccc(=O)[nH]c2)cc1S(=O)(=O)Nc1ccccc1OC`: the cell number change was -22.9%. For the same compound, under setting [2], the AC50 was 2.91 µM [rising, full curve, poor fit].
For the compound `CC(C)NC(=O)CSc1nc(N)c(NC(=O)c2ccccc2F)c(=O)[nH]1`, the cell number change is -5.19%. The concentration at half-maximal activity (AC50) under setting [1] is 5.17 µM [falling, partial curve, poor fit]. Under setting [2], the concentration at half-maximal activity (AC50) is 32.6 µM [rising, single point].
On to `Cc1ccc(C)c(S(=O)(=O)NCc2ccc(C(=O)N3CCOCC3)cc2)c1`, for which the cell number change was found to be 0.867%. Besides, the half-maximal activity concentration (AC50) under setting [2] is 29.1 µM [falling, single point].
As for `COc1ccc(Cn2c(=O)[nH]c3cc(C(=O)N4CCN(c5ccc(C(C)=O)cc5)CC4)ccc3c2=O)cc1`, the cell number change stood at 4.17%. In addition, under setting [1], the concentration at half-maximal activity (AC50) was 5.8 µM [rising, partial curve].
`O=C(CN(C(=O)CNC(=O)c1ccco1)c1ccc(Cl)c(Cl)c1)NC1CCCCC1`: the cell number change is -18.5%.
With `COCCn1c(C)cc(C(=O)Cn2nc(C(=O)O)c3ccccc3c2=O)c1C`, under setting [1], the half-maximal activity concentration (AC50) is 0.651 µM [rising, single point].
For the compound `CC1(C)CC(NC(=S)NCc2ccc3c(c2)OCO3)CC(C)(C)N1`, the cell number change is -20.8%. Further, under setting [1], the AC50 was 0.164 µM [falling, full curve, poor fit]. Besides, under setting [2], the AC50 is 10.3 µM [falling, single point].
`Cc1ccccc1CC(=O)Nc1cccnc1`: the cell number change was -17%. For the same compound, under setting [2], the AC50 is 6.51 µM [rising, single point].
Regarding `CCOc1cc(/C=N/NC(=O)CSc2cccc3cccnc23)ccc1O`, the cell number change is 24.2%.
Turning to `Cc1nc2ccc(C(=O)Nc3cccc([N+](=O)[O-])c3)cc2s1`, under setting [1], the AC50 is 6.51 µM [falling, single point].
Take `CNc1oc(-c2ccc(Cl)cc2)nc1P(=O)(c1ccccc1)c1ccccc1`: the cell number change was -35.2%. In addition, under setting [1], the AC50 is 29.1 µM [falling, single point]. The AC50 under setting [2] was 29.1 µM [falling, single point].
`COC(=O)c1c(C)[nH]c(C(=O)/C=C/c2ccccc2Cl)c1C`: the cell number change was 14.4%. Moreover, under setting [2], the concentration at half-maximal activity (AC50) is 29.1 µM [rising, single point].
For the compound `Cc1noc(C)c1C(=O)Nc1ccc(-c2nnc3n2CCCCC3)cc1`, the cell number change is -0.551%. Further, the AC50 under setting [2] was 0.731 µM [falling, full curve, poor fit].
With `CC(C)CN(C(=O)CSc1nnc2ccccn12)c1c(N)n(CC(C)C)c(=O)[nH]c1=O`, the cell number change came to 63.7%. Moreover, the AC50 under setting [1] is 16.4 µM [rising, partial curve].
